Article PMC11033335
These are yes or no findings as the source states them, for the method shown. In cells and extracts the contact can be indirect. Some entries that bind do so weakly or less than the wild type.

Sequences of proteins named here, by UniProt entry; tags and fusion partners are left off.
UniProt P16455: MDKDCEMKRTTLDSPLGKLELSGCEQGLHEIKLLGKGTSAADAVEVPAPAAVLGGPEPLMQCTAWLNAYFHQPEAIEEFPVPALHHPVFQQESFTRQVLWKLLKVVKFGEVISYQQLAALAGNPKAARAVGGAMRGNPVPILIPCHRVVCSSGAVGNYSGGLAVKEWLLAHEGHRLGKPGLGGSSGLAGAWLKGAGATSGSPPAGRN

Target: FLAG-tagged MGMT (O6-methylguanine-DNA methyltransferase) (human) (UniProt P16455)
Assay: co-IP; cells transfected with FLAG-MGMT; FLAG-MGMT purified on anti-FLAG-agarose; coprecipitating endogenous USP19 detected by anti-USP19 antibody

binding: binds
B1: endogenous USP19 (ubiquitin-specific protease USP19) (enzyme, UniProt O94966 1-1318)
chain: MSGGASATGPRRGPPGLEDTTSKKKQKDRANQESKDGDPRKETGSRYVAQAGLEPLASGDPSASASHAAGITGSRHRTRLFFPSSSGSASTPQEEQTKEGACEDPHDLLATPTPELLLDWRQSAEEVIVKLRVGVGPLQLEDVDAAFTDTDCVVRFAGGQQWGGVFYAEIKSSCAKVQTRKGSLLHLTLPKKVPMLTWPSLLVEADEQLCIPPLNSQTCLLGSEENLAPLAGEKAVPPGNDPVSPAMVRSRNPGKDDCAKEEMAVAADAATLVDEPESMVNLAFVKNDSYEKGPDSVVVHVYVKEICRDTSRVLFREQDFTLIFQTRDGNFLRLHPGCGPHTTFRWQVKLRNLIEPEQCTFCFTASRIDICLRKRQSQRWGGLEAPAARVGGAKVAVPTGPTPLDSTPPGGAPHPLTGQEEARAVEKDKSKARSEDTGLDSVATRTPMEHVTPKPETHLASPKPTCMVPPMPHSPVSGDSVEEEEEEEKKVCLPGFTGLVNLGNTCFMNSVIQSLSNTRELRDFFHDRSFEAEINYNNPLGTGGRLAIGFAVLLRALWKGTHHAFQPSKLKAIVASKASQFTGYAQHDAQEFMAFLLDGLHEDLNRIQNKPYTETVDSDGRPDEVVAEEAWQRHKMRNDSFIVDLFQGQYKSKLVCPVCAKVSITFDPFLYLPVPLPQKQKVLPVFYFAREPHSKPIKFLVSVSKENSTASEVLDSLSQSVHVKPENLRLAEVIKNRFHRVFLPSHSLDTVSPSDTLLCFELLSSELAKERVVVLEVQQRPQVPSVPISKCAACQRKQQSEDEKLKRCTRCYRVGYCNQLCQKTHWPDHKGLCRPENIGYPFLVSVPASRLTYARLAQLLEGYARYSVSVFQPPFQPGRMALESQSPGCTTLLSTGSLEAGDSERDPIQPPELQLVTPMAEGDTGLPRVWAAPDRGPVPSTSGISSEMLASGPIEVGSLPAGERVSRPEAAVPGYQHPSEAMNAHTPQFFIYKIDSSNREQRLEDKGDTPLELGDDCSLALVWRNNERLQEFVLVASKELECAEDPGSAGEAARAGHFTLDQCLNLFTRPEVLAPEEAWYCPQCKQHREASKQLLLWRLPNVLIVQLKRFSFRSFIWRDKINDLVEFPVRNLDLSKFCIGQKEEQLPSYDLYAVINHYGGMIGGHYTACARLPNDRSSQRSDVGWRLFDDSTVTTVDESQVVTRYAYVLFYRRRNSPVERPPRAGHSEHHPDLGPAAEAAASQASRIWQELEAEEEPVPEGSGPLGPWGPQDWVGPLPRGPTTPDEGCLRYFVLGTVAALVALVLNVFYPLVSQSRWR
